These results are taken from the supplement of paper PMC12819154, “High-throughput peptide-centric local stability assay extends protein–ligand identification to membrane proteins, tissues and bacteria” (Nature Structural & Molecular Biology, 2025).

By UniProt entry, the sequences of proteins in these tests, tags left out. Where a name states a change or a piece, a line headed by the entry shows the natural chain unless it says otherwise.
UniProt Q91X77, whole entry: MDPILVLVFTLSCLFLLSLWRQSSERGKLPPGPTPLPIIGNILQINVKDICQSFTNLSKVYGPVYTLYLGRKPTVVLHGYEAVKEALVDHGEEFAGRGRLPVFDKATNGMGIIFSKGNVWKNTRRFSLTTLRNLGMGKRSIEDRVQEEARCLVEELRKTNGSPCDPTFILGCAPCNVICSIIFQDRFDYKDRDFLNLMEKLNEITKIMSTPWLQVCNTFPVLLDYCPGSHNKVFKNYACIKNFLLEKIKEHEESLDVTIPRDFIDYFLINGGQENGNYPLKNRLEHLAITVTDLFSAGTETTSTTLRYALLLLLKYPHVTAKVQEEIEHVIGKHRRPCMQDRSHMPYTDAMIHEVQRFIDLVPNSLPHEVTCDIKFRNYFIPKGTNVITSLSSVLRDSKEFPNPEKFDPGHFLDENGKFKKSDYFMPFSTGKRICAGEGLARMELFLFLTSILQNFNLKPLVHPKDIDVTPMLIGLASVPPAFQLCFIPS
UniProt Q921I2: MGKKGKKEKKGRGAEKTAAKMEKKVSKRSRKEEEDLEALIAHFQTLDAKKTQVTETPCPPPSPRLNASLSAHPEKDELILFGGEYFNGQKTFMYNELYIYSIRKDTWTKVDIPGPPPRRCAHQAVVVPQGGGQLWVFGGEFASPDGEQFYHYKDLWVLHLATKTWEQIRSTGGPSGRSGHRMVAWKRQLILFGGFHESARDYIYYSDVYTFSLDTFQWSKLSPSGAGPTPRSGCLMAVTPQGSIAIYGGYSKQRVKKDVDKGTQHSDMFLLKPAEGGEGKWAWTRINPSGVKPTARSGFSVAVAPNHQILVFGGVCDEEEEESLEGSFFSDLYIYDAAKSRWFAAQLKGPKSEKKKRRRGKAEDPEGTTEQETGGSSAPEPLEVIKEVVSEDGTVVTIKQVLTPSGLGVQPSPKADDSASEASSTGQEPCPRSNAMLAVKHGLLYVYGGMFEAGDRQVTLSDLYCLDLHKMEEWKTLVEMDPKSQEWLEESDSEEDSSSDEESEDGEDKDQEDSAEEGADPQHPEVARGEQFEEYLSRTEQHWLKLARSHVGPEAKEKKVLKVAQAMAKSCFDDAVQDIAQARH
UniProt Q91Z38: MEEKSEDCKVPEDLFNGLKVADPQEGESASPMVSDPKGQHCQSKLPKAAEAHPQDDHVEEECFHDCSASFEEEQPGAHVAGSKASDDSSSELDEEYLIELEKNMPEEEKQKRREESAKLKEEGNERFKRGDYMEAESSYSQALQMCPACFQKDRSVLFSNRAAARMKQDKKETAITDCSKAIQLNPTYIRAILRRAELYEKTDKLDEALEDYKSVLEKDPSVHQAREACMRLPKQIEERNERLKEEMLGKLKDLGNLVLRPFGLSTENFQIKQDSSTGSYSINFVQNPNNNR
UniProt Q8VDQ1: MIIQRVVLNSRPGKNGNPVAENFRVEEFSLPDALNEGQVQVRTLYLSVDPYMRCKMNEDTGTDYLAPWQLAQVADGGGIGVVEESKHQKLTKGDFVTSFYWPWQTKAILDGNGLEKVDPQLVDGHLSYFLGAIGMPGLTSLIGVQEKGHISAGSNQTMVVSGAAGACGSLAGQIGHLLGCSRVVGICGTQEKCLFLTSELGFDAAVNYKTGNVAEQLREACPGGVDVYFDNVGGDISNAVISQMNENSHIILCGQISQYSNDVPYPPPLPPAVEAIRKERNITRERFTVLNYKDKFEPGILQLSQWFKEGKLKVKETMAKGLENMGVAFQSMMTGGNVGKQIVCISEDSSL
UniProt Q924H7: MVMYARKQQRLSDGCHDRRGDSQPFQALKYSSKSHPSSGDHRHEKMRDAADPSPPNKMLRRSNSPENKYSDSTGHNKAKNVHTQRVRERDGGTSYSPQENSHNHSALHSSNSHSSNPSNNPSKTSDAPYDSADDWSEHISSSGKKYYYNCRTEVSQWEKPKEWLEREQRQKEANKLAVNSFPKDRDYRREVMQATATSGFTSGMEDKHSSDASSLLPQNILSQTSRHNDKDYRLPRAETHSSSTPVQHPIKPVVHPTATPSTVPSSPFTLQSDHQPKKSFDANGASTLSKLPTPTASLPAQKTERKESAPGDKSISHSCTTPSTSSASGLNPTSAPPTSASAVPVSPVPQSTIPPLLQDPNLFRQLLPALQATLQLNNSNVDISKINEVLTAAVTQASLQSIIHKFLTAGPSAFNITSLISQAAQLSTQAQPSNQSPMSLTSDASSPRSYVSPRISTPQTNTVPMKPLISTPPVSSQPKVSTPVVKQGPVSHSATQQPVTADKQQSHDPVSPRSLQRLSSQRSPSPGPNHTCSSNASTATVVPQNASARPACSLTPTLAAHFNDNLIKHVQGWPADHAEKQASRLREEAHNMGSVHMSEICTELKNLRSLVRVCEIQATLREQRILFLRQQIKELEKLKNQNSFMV
UniProt Q91X83: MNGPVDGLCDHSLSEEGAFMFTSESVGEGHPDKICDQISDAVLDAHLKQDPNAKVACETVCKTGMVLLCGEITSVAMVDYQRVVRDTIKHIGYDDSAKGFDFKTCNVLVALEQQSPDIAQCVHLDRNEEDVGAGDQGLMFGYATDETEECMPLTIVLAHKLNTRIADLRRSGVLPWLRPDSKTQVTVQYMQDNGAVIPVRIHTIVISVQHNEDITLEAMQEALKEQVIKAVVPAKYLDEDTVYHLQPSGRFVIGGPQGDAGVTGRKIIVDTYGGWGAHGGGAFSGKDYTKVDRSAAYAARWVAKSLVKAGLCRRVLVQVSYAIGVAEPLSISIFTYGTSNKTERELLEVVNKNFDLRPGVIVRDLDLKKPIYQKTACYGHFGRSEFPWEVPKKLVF
UniProt Q922B9: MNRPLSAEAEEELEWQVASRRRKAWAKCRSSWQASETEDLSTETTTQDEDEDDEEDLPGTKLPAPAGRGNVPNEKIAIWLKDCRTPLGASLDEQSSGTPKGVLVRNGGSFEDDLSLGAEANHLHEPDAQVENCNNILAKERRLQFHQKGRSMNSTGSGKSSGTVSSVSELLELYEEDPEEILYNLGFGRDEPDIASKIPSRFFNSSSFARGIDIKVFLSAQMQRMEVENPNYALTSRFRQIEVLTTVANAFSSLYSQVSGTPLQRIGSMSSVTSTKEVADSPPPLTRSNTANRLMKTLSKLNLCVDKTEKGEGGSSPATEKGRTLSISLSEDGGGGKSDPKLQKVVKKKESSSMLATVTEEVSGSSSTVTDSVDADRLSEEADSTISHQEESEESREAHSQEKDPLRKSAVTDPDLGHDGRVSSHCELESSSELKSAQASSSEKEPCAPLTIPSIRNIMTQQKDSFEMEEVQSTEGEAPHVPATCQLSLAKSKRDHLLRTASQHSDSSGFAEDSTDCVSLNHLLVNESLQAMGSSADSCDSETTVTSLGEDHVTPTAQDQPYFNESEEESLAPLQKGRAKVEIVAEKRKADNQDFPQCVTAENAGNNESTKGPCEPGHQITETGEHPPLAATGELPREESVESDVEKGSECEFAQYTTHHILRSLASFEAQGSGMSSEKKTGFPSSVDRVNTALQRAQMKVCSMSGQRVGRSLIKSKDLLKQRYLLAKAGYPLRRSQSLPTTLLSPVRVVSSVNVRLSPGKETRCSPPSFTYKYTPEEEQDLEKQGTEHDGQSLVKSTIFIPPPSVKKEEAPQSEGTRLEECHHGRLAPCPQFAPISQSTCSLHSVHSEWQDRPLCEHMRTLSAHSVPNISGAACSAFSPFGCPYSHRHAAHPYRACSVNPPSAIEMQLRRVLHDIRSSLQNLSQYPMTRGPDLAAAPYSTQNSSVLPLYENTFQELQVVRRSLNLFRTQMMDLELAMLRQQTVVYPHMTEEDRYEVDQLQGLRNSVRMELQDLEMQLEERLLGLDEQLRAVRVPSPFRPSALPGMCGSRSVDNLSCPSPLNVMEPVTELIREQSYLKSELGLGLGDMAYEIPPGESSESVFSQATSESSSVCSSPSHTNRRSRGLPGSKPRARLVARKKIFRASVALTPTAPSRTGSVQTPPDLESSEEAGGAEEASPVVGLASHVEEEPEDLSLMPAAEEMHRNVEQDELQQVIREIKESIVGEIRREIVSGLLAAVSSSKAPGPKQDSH
UniProt Q921I0: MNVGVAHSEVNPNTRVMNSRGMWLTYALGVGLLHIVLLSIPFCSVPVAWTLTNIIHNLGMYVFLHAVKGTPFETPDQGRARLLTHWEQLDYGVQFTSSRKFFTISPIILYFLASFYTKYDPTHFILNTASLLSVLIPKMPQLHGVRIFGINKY
UniProt Q8VCR2: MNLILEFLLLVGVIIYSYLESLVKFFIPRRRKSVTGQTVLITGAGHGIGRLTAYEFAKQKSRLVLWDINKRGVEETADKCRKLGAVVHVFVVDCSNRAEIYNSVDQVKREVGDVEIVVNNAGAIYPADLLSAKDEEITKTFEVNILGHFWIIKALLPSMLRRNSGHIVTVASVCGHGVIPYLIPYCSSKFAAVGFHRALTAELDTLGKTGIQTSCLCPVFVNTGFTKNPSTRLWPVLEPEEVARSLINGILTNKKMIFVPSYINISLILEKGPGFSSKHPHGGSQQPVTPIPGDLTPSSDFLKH
UniProt Q8VDD8: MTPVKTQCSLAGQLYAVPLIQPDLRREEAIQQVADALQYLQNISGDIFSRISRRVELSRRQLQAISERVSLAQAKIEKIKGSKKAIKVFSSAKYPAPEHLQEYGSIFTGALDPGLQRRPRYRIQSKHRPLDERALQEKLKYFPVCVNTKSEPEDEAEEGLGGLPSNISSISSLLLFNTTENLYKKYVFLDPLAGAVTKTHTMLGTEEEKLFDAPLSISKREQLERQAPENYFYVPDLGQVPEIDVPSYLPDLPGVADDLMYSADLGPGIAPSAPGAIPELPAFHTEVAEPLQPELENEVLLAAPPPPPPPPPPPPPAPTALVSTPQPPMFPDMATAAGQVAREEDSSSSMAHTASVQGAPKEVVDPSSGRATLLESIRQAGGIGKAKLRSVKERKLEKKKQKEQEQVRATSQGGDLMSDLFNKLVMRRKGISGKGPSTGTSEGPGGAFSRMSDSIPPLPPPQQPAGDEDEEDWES
UniProt Q923D5: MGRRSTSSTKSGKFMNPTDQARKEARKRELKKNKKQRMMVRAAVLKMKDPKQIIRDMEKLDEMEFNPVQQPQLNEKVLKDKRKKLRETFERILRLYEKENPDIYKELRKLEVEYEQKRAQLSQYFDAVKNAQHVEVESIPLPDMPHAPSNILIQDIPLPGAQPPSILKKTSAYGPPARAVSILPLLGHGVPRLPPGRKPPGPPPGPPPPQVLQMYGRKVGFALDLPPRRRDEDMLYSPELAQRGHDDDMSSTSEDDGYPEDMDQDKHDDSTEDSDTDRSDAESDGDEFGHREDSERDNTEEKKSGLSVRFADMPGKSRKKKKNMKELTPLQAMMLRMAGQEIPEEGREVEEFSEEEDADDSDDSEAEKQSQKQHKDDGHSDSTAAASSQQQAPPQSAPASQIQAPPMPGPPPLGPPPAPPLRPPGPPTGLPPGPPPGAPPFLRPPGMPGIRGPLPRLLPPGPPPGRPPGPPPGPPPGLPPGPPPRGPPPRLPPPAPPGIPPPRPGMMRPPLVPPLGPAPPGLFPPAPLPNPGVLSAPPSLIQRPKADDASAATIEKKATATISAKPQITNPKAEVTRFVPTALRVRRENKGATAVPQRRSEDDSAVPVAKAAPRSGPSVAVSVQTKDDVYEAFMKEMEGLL
UniProt Q91YT0, whole entry: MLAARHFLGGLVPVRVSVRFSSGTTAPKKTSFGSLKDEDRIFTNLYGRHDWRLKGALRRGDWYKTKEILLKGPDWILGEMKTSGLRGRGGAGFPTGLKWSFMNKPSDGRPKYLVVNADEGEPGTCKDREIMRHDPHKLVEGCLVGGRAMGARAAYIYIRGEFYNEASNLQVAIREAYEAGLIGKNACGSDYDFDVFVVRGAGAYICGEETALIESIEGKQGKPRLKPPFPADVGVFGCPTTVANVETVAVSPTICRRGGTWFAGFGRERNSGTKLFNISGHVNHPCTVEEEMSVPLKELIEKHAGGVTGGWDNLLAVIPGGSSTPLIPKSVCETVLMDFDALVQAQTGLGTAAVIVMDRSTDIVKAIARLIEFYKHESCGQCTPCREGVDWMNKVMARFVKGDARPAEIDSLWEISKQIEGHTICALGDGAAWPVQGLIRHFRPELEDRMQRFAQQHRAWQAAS
UniProt Q91V09: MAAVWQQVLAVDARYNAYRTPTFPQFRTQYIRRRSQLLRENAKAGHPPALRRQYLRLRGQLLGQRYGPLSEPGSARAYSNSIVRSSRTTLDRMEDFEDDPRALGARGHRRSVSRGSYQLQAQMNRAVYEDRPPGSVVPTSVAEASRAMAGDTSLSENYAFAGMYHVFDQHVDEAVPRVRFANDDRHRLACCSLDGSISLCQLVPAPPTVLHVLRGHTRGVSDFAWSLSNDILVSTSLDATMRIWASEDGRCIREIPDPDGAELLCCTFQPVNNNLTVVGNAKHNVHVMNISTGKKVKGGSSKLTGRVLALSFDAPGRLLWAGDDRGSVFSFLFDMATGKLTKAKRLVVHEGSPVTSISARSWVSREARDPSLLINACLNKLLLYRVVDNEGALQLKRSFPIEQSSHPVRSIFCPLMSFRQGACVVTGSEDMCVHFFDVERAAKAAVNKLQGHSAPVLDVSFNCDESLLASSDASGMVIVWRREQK

Some of the results follow. Most values lie at the level of the controls, where differences are scatter.

Compound in the test: CN[C@@H]1C[C@H]2O[C@@](C)([C@@H]1OC)n1c3ccccc3c3c4c(c5c6ccccc6n2c5c31)C(=O)NC4 [staurosporine]
In words: log2 fold change of pooled soluble protein (PISA), ligand vs vehicle (log2 ratio); higher = more thermally stabilized. The note with it: ligand concentration: 20 uM; assay format: PISA pool 52.9/55.5/58.6 C.
Consider UniProt Q99J09, for which the “log2 fold change of pooled soluble protein” value (shortened to “log2 fold change”) is -0.395.
Turning to UniProt Q925N2, the “log2 fold change” value is -0.0207.
For UniProt Q91X77, the “log2 fold change” value turned out to be 0.0775.
To UniProt Q921I2 belongs 0.12; to UniProt Q91ZE0, -0.192; to UniProt Q91Z38, 0.0862.
To UniProt Q99J27 belongs -0.347; to UniProt Q8VDQ1, -0.0472; to UniProt Q924H7, -0.074.
As for UniProt Q91WG5, the figure is 0.696.
UniProt Q91X83: the “log2 fold change” value is -0.0162.
To UniProt Q922B9 belongs -0.171.
As for UniProt Q8VI47, the figure is 0.0288; as for UniProt Q921I0, -0.18; as for UniProt Q91XT4, 0.0739.
As for UniProt Q91WG2, the figure is 0.145; as for UniProt Q920Q8, -0.0716; as for UniProt Q8VDG7, -0.0132.
As to UniProt Q922H4, the “log2 fold change” value stood at 0.17.
Turning to UniProt Q8VEB4, the “log2 fold change” value is -0.0722.
As for UniProt Q8VCR2, the figure is -0.0261; as for UniProt Q8VDD8, 0.0527.
In the case of UniProt Q922Q1, the “log2 fold change” value was -0.02.
As for UniProt Q8VE42, the figure is 0.187; as for UniProt Q91VR5, -0.277; as for UniProt Q923D5, -0.00382.
As for UniProt Q91WU0, the figure is 0.16; as for UniProt Q8VE96, 0.045; as for UniProt Q921X9, -0.0255.
As for UniProt Q91VR2, the figure is -0.0543.
For the target UniProt Q91XL9, the “log2 fold change” value is -0.0427.
Take UniProt Q91VI7: the “log2 fold change” value was found to be 0.024.
With UniProt Q91YT0, the “log2 fold change” value is -0.0908.
As for UniProt Q91W50, the figure is -0.332; as for UniProt Q91V09, 0.0368; as for UniProt Q8VE62, 0.0985.
As for UniProt Q91YI0, the figure is 0.0279; as for UniProt Q8VCS0, 0.00653.
